Reference: patent US20230053131A1 (INTERVET, published 2023)
No constants are given. Whether binding was seen depends on the method and setting. Some binding calls cover weakened binding; strength is not graded here.

T1: canine IL-4 receptor alpha (as used in the ELISA of FIG. 3 and in the epitope mapping) (canine)
T1 sequence: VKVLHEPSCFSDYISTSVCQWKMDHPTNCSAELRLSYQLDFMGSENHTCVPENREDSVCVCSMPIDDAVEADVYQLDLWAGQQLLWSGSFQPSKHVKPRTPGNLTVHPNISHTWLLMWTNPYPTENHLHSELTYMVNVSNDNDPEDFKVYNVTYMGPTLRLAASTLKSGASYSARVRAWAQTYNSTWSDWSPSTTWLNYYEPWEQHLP


Key:
[1] = target: T1, canine IL-4 receptor alpha (as used in the ELISA of FIG. 3 and in the epitope mapping) (canine); test: ELISA
[2] = target: T1, canine IL-4 receptor alpha (as used in the ELISA of FIG. 3 and in the epitope mapping) (canine); test: ELISA (FIG. 3)

| Binder | binding [1] | binding [2] |
| --- | --- | --- |
| c146ClL1-H1 (antibody, V domains shown) VH: EVQLVQSGAEVKKPGASVKVSCKASGYTFARYWMHWVRQAPGAGLDWMGMIHPDSGNINYNERFKTRVTLTADTSTSTAYMELSSLRAGDIAVYYCARQLRNAMDYWGQGTLVTVSS VL: QSVLTQPASVSGSLGQRVTISCRASESVDSYGNSFLNWYQQLPGKAPSLLIYRASNLASGVPERFSGSKSGSSATLTITGLQAEDEADYYCQQNYENPRTFGGGTHLTVLG | binds | – |
| c146ClL1-H2 (antibody, V domains shown) VH: EVQLVQSGAEVKKPGASVKVSCKASGYTFARYWMHWMKQAPGAGLDWIGMIHPDSGNINYNERFKTKATLTADTSTSTAYMELSSLRAGDIAVYYCARQLRNAMDYWGQGTLVTVSS VL: QSVLTQPASVSGSLGQRVTISCRASESVDSYGNSFLNWYQQLPGKAPSLLIYRASNLASGVPERFSGSKSGSSATLTITGLQAEDEADYYCQQNYENPRTFGGGTHLTVLG | binds | – |
| c146ClL1-H3 (antibody, V domains shown) VH: EVQLVQSGAEVKKPGASVKVSCKASGYTFARYWMHWMKQAPGAGLDWIGMIHPDSGNINYNERFKTKATLTVDKSTSTAYMELSSLRAGDIAVYYCARQLRNAMDYWGQGTLVTVSS VL: QSVLTQPASVSGSLGQRVTISCRASESVDSYGNSFLNWYQQLPGKAPSLLIYRASNLASGVPERFSGSKSGSSATLTITGLQAEDEADYYCQQNYENPRTFGGGTHLTVLG | binds | binds |
| c146E2VL3-cCLk-s/c146E2VH3-cIgG-Bm (antibody, V domains shown, Caninized murine anti-canine IL-4R alpha antibody, canine IgG-Bm heavy chain and canine kappa light chain; also called c146E2-H3L3) VH: EVQLVQSGAEVKKPGASVKVSCKASGYTFARYWMHWMKQAPGAGLDWIGMIHPDSGNINYNERFKTKATLTVDKSTSTAYMELSSLRAGDIAVYYCARQLRNAMDYWGQGTLVTVSS VL: DIVLTQTPLSLSVSPGETASIYCRASESVDSYGNSFLNWYQQKPGQPPKLLIYRASNLASEIPDRFSGSGSRTEFTLKISRVEADDAGVYYCQQNYENPRTFGQGTKLEIKR | binds | binds |
